# From patent US10912816B2 (THE TRUSTEES OF COLUMBIA UNIVERSITY IN THE CITY OF NEW YORK, priority 2010, dated 2021)
# Some peptides are written in HELM: one residue between dots, names in brackets for other building blocks, links after the first $.
# Assay: peptide made by a vendor
# Settings: whole synthesis, identity by LC/MS
substance,measurement,value
PEPTIDE1{N.W.T.P.Q.A.M.L.Y.L.K.G.A.Q.[am]}$$$$V2.0,final HPLC purity,>99%
